From paper PMC2225441, “Partial Restoration of Mutant Enzyme Homeostasis in Three Distinct Lysosomal Storage Disease Cell Lines by Altering Calcium Homeostasis” (PLoS Biology, 2008)

Test system: L444P GC
Assay: intact cell GC activity assay in homozygous L444P GC patient-derived fibroblasts
Type: cell-based, human
Conditions: only the named compounds increased activity

With C(=C\c1ccccc1)/CN1CCN(C(c2ccccc2)c2ccccc2)CC1 [cinnarizine] the “L444P GC activity, screen of VGCC blockers, ionotropic glutamate receptor inhibitors and other calcium channel blockers” value was “only diltiazem and verapamil”.
